Assay results reported in paper PMC7876812.
No constants are given. Whether binding was seen depends on the method and setting. Binding can be weak; no strength is given. For part of these data: Tags and fused reporters may be left off the sequences shown. For part of these data: Binding seen in cells or lysates may run through a third protein. Values belong to the molecule of their own block, whether it stands above or below them.

Protein sequences, listed by entry. Tags and fused reporters are not part of them.
UniProt P54666: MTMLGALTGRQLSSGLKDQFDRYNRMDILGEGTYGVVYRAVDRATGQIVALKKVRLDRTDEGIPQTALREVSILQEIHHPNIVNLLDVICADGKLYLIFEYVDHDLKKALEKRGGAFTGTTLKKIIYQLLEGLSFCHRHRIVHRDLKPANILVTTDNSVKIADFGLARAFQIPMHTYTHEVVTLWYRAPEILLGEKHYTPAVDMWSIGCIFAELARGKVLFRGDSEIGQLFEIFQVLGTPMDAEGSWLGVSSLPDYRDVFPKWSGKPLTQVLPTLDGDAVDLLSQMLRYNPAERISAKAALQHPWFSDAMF

Columns and labels:
[1] = biological target: T1, CRK2 (Cdc2-related kinase 2), yeast two-hybrid fusion (Trypanosoma brucei) (UniProt P54665); assay: two-hybrid; Gal4 system, AH109 (prey, pGAD) mated with Y187 (bait, pGBK); CRK2 as BD or as AD fusion against each of the eleven CMG subunits as AD or BD fusion; growth on 3DO plates at 30 °C
T1 sequence: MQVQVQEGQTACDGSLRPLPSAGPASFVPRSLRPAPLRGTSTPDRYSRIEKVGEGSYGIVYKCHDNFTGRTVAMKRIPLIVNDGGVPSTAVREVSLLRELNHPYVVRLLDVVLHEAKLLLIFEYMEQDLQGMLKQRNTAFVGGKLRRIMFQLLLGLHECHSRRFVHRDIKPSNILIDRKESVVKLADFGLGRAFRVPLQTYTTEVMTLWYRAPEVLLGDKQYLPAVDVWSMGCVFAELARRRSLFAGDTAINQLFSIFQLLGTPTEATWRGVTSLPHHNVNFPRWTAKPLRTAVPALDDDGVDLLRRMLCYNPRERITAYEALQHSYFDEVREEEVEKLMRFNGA

[2] = biological target: CYC13 (Cyclin13), yeast two-hybrid fusion (Trypanosoma brucei) (UniProt Q387H2); assay: two-hybrid; Gal4 system, AH109 (prey, pGAD) mated with Y187 (bait, pGBK); CYC13 against the eleven CRKs; growth on 4DO plates at 30 °C for up to 3 days; which partner was bait is not told
[3] = biological target: T2, CRK2-3HA (Trypanosoma brucei) (UniProt P54665); assay: co-IP; reciprocal: 3HA-tagged CRK precipitated from T. brucei lysate, CYC13-PTP detected; beads not told
T2 sequence: T1 sequence

[4] = biological target: Mcm3, yeast two-hybrid fusion (Trypanosoma brucei); assay: two-hybrid; Gal4 system, AH109 (prey, pGAD) mated with Y187 (bait, pGBK); CRK2 as BD or as AD fusion against each of the eleven CMG subunits as AD or BD fusion; growth on 3DO plates at 30 °C
[5] = biological target: Psf3, yeast two-hybrid fusion (Trypanosoma brucei); assay: as above
[6] = biological target: Sld5, yeast two-hybrid fusion (Trypanosoma brucei); assay: as above
[7] = biological target: CYC13-PTP (Trypanosoma brucei); assay: co-IP; PTP-tagged protein precipitated with IgG Sepharose 6 fast flow beads from cleared T. brucei lysate (25 mM Tris-Cl pH 7.6, 100 mM NaCl, 1 mM DTT, 1% NP-40), 1 h at 4 °C; blot with anti-HA and anti-protein A
[8] = biological target: GST-Mcm3 (Trypanosoma brucei); assay: pull-down; GST fusion on Glutathione Sepharose beads incubated with cleared lysate of T. brucei cells expressing CRK2-3HA, room temperature 30 min; 25 mM Tris-Cl pH 7.6, 100 mM NaCl, 1 mM DTT, 1% NP-40; blot with anti-HA; only the target purified
[9] = biological target: GST-Sld5 (Trypanosoma brucei); assay: as above

Molecule: Mcm3, yeast two-hybrid fusion (Trypanosoma brucei)
binding [1]: binds

Molecule: CYC13-PTP (Trypanosoma brucei)
binding [3]: binds

Molecule: Sld5, yeast two-hybrid fusion (Trypanosoma brucei)
binding [1]: binds

B2: CRK2-3HA (enzyme, UniProt P54665 1-345)
chain: T1 sequence
binding [7]: binds | binding [8]: binds | binding [9]: binds

B3: CRK1, yeast two-hybrid fusion (enzyme, UniProt P38973 1-301)
chain: MGSRYERLQKIGEGSYGVVFRARDVTTGTIVAVKRIRLEKEEEGVPCTAIREISILKELRHENIVRLLDVCHSEKRLTLVFECMEMDLKKYMDHVGGDLDAGTIQEFMRSLLSGVRFCHERNVLHRDLKPPNLLISREKELKLADFGLGRAFGIPVKKFTQEVVTLWYRSPDVLLGSTQYGTPVDIWSVGCIFAEMAIGAPLFTGKNDADQLLRIFQFLGTPNRQVWPSMDTYPNSSNMLSRPEFQQTLAATCEEQFQTNPAYAKLGPQGIDLLRWLLRYEPSERLTAAQALEHPYFSVEF
binding [2]: no binding

B4: CRK6, yeast two-hybrid fusion (enzyme, UniProt Q8IEW4 1-325)
chain: MSDTLSSKLDDVDADVLRGAYEPVAIIGEGTYGVVFRARGVASGAEFVIKKLRSDKLKEGVPATTLREVTLLHEMSDNPNVVRLLDVLCSKRRVYLVFELLNEDLRSFIRRNYPQPSATASSSVVPLRLVKNFTCQMLHALWRCHQNRIIHRDLKPANVLLGVKKSTRNDGEDSYILKLADFGLARTYEMTLLTYTKEVMTLWYRAPEILLGERHYTPAADVWSVGCIVLEMIVGCPVFRGESNRDQLDRIFYTVGTPTEETWAGVAMMPGYDKATKIYKVAPLHERLPTFDKEAVQFVAFLLQVNPKSRPTIPTILQHPFLQGD
binding [2]: no binding

Further lines, results first:

binding [1]: binds
Molecule: Mcm6, yeast two-hybrid fusion (Trypanosoma brucei)

binding [2]: binds
Molecule: CRK3, yeast two-hybrid fusion (from UniProt P54666 1-311) (enzyme)

binding [1]: binds
Molecule: Mcm5, yeast two-hybrid fusion (Trypanosoma brucei)

binding [2]: binds | binding [4]: binds | binding [5]: binds | binding [6]: binds
B1: CRK2 (Cdc2-related kinase 2), yeast two-hybrid fusion (enzyme, UniProt P54665 1-345)
chain: T1 sequence
